Among all 53,000 sequences or so, about 3,700 (7%) were called active.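 The calls were made as follows: active = gene knockdowns whose robust z-score for IL-1 alpha signal is at least 2 or at most -2, so actives lie on both sides; inactive = the rest.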 Some of the results follow.

This assay is described as follows: Components of the Cytosolic LPS Sensing Pathway: Gene Identification via Genome-wide siRNA Screen.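 Also: robust z of the log signal after scaling to non-targeting control siRNA wells of the plate.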 As to conditions: RAW264.7 macrophages, IL-1a HTRF, actives lie on both sides, screened at 100 nM (by protocol), cells primed 5 h with Pam3CSK4 first. In a few lines:
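IL-1a HTRF of supernatants after 24 hour LipidA transfection of Pam3CSK4-primed (5 hours) RAW264.7 cells, 48h post-siRNA transfection (100 nM). Scores: percent of plate negative-control median, then log-based robust z-score.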
On the technique in general: In TR-FRET formats the signal depends on donor and acceptor labels being close together.
Consider GGACCAUUUACACAUUCAGTT against Kptn, for which the z-score was inactive: 0.239.
On to GGUAGUGUCGGAUGUGCUATT against Mab21l2, for which the z-score was inactive: -0.696.
Take GGAUAACACUGUGAGAGUUTT against Il17f: the z-score is inactive: 1.25.
For GGCAAAAAGUAUUCUGAAGTT against Lrrc9 the value was inactive: 0.144; for GGAGCCCAUCAAGUAUGGUTT against Peli3, inactive: -1.92.
The result for CCAAGCUACCAGGGUUUUUTT against Abcb9 reads active: 2.1; that for CCAAGAGUCUAUAUCCGCUTT against Sardh, inactive: 1.16; that for GCGACAGGAUGAGAAAGCATT against Ppm1f, inactive: 0.425.
For GGAUGGCUUUCUGUCUUUCTT against Trappc1 the value was inactive: 1; for CGACCUACUCUACAGCAAATT against Brinp3, active: 2.6; for GGAAAUCGUAAAGUUUAGCTT against Inmt, inactive: 0.797.
Take GGUCAACGUGUAUGUAUUUTT against Lrat: the z-score was inactive: -1.27.
In the case of GCCCUGAAGCCUAUAAUCATT against Nhlrc1, the z-score was active: 2.34.
The result for GCCGUAUGGCAAGAUUGUCTT against Rbms2 reads inactive: -0.442; that for GGAAGCGAUAAUUUUAAGCTT against Ptges3, inactive: 1.64; that for GGAUCUGGGAUACCACACATT against Wdr1, inactive: 1.04.
Turning to “UCUCUUGGUACAUUUGGCATT against 1700073E17Rik”, the z-score was inactive: -0.039.
The result for GGGCAGAAAAUUGACUUAATT against Nemf reads inactive: -1.14; that for GGAAUUCAUUGCUAUUAUGTT against Cetn3, active: 2.12; that for GGUCAAAAGUGCUCUGAAGTT against Olfr447, inactive: -0.142.
In the case of GGAUGCUAUGAGCAACUUUTT against Mc4r, the z-score was inactive: 0.47.
With GGAUGUCGAAGAAACAAAUTT against Ceacam12, the z-score is inactive: -1.39.
The result for GGGCUGAAUAAGGAACUGUTT against Nudt16l2 reads inactive: 1.46; that for GGAAUAAUCCCAGAAUCAGTT against Stard6, inactive: 0.0758; that for GGGUGCAUUACCCAGAUAUTT against Olfr1353, inactive: 0.0848.
The result for GGGUGGAUUGAGAACAUCATT against Slc7a6os reads inactive: -0.876; that for GGUGUUUUGCUUCCUUUUCTT against Olfr1184, inactive: 0.121; that for CCGAAGUGGAAUAAAUUGUTT against Wdr63, inactive: 0.637.
For GGACAUAGCAUGGUUCUAATT against Sult4a1 the value was inactive: 1.63; for GGGAGUAGUAAUUGUACUUTT against Ugt2a2, inactive: 0.401; for GGAAAGCUUAUUUUCUCUCTT against Ppp1r1c, inactive: 0.437.
Turning to GGAAGAAAUGGACCAGCUGTT against Hgh1, the z-score was inactive: -0.416.
In the case of GCAUAAAGGAAUUGAUUCCTT against Zfp874a, the z-score was inactive: 0.652.
For GUUUUUGCUAUGGCUCGUATT against H3c1, the z-score was inactive: 0.92.
Turning to GUAUUCCAAUGUGGUGUUCTT against Txn1, the z-score was inactive: 0.712.
For GGUACUAAAGAAAUAUCCCTT against Sirt7 the value was inactive: 0.736.
For GGGUCAGUCCUUUUGAAUCTT against Rps15a the value was inactive: 0.104; for GGAUUAUGGAGUUUGAUAGTT against Mrgprb4, inactive: 0.938.
With GGAAUCAGUCGCAUCACUUTT against Gm4792, the z-score is inactive: -0.769.
The result for GCUUUGUCUACGUCUUUCATT against Gpnmb reads inactive: 0.307; that for GGCAAGUUUCGCACCUCAGTT against Zfp219, inactive: -0.755.
On to GGUUCAGAUGAAAUUUAGGTT against Ccnb1, for which the z-score was inactive: -1.41.
As to GCCUCCCUCCAACAUUUAUTT against Sall4, the z-score was inactive: -1.53.
GGUGGAAAGAGAGAGCUACTT against Slc12a7: the z-score is inactive: 0.458.
Take GCUUCUGACCAUAUGUAGATT against Cd19: the z-score was inactive: 0.183.
For CCUUGUUAGAGCAUUACAATT against Rprd1a the value was inactive: 1.34; for GGAAACUUUGCUGGUUAUATT against Dct, inactive: 1.2; for GGUCACCUCAAUAAACUCUTT against Myl7, inactive: 0.228.
Turning to GCACCUAGUUAAUGCUGCCTT against C2cd2, the z-score was active: -2.15.
In the case of GCUACAAUGCAACGUGGCUTT against Slc2a4, the z-score is inactive: 0.385.
The result for CCGGCUAUCUUUGAGAUGGTT against Kif3c reads inactive: -0.602; that for GGAAUAAAGCUCAUCUACGTT against Slc43a2, active: 2.09.
GGCAACAUUGAACAUGCCUTT against Stambp: the z-score was inactive: -1.76.
The result for GGAGAAAAAUAUUCUCUACTT against Olfr1094 reads inactive: 1.19; that for CCCAUUCUCAGGGUACUAATT against Necab3, inactive: -1.7.
CCCAUUAGACCCAAGUUGGTT against Inpp5e: the z-score was inactive: -0.836.
For GGAUGACCGUAUUGUGCUUTT against Actc1 the value was inactive: 0.292; for GGAUGACAUCAUCAUUUGUTT against Samm50, inactive: 1.23.
As to GGAGGACUUUGUGUCUUACTT against Pald1, the z-score was inactive: -0.136.
The result for GGAAUCGAUGUUAACAUAATT against Anks1 reads inactive: 0.3; that for GCAUAUUCUCACGUUUUCCTT against Mrgpra6, inactive: -0.322.
For AUUCAUGUGGGCUUGUUAGTT against Olfr198 the value was inactive: -0.0194; for GGAGACUUUGUUCAUGACATT against Tacr2, inactive: 0.192.
For CGGGUGAUGCCUAUGUCAUTT against Gsn the value was inactive: 0.837; for GUUCCAUCUCCUUCCAGGATT against Cdc42ep2, inactive: 0.556.
With GCUGUAACAAAGGAAAUAGTT against Nos2, the z-score was inactive: 0.779.
The result for GGCACAAACCUCUUUUGUUTT against Rtkn reads inactive: -0.684; that for GGCUACUCCUAUGACCUGATT against Psmb5, inactive: -0.615; that for CGGAAAUGUAUACAAAUCATT against Myt1l, inactive: 1.67.

For the origin of these results see PubChem BioAssay AID1508600 (Functional Genomics Laboratory (NCATS/FGL), 2020).
